Results as given in paper PMC4521966.
Results are given in words; binding and its absence hold for the method and conditions named. Binding seen in cells or lysates may run through a third protein. A yes stands for co-enrichment or nearness to the bait. Other partners may have been found. Sequences can lack the tags named with a protein.

T1: C-terminal FLAG-tagged mouse WDR72 (WD repeat-containing protein 72) (mouse) (UniProt D3YYM4)
T1 sequence: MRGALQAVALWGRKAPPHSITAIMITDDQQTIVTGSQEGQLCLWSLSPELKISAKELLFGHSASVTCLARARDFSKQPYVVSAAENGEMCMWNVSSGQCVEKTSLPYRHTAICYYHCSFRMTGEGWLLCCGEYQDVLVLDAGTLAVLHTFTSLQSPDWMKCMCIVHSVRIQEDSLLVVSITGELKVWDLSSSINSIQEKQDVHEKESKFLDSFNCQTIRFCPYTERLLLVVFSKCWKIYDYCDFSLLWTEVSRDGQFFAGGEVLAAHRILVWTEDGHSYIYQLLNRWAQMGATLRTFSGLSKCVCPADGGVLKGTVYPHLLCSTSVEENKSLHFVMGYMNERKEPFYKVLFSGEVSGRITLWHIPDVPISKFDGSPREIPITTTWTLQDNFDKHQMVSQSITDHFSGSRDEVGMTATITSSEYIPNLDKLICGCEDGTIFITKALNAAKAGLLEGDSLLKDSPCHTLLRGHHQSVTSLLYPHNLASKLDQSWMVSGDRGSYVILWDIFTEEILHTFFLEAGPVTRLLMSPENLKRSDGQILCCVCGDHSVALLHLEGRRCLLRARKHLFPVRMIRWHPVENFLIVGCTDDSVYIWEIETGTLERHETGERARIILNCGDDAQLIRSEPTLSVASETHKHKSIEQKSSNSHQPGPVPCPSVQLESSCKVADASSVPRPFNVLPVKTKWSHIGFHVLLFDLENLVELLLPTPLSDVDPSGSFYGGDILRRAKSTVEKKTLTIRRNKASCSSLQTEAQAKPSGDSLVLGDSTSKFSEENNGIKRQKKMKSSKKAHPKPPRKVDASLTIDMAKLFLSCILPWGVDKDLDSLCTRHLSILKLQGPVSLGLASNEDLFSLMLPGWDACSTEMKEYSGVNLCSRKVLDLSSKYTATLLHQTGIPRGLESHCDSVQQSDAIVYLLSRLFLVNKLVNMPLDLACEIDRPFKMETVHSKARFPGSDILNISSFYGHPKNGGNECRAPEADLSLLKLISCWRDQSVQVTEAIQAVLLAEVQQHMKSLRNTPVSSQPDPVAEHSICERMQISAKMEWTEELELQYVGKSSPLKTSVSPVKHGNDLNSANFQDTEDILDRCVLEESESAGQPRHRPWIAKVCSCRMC

B1: RARS (protein, UniProt P54136 1-660)
chain: MDVLVSECSARLLQQEEEIKSLTAEIDRLKNCGCLGASPNLEQLQEENLKLKYRLNILRKSLQAERNKPTKNMINIISRLQEVFGHAIKAAYPDLENPPLLVTPSQQAKFGDYQCNSAMGISQMLKTKEQKVNPREIAENITKHLPDNECIEKVEIAGPGFINVHLRKDFVSEQLTSLLVNGVQLPALGENKKVIVDFSSPNIAKEMHVGHLRSTIIGESISRLFEFAGYDVLRLNHVGDWGTQFGMLIAHLQDKFPDYLTVSPPIGDLQVFYKESKKRFDTEEEFKKRAYQCVVLLQGKNPDITKAWKLICDVSRQELNKIYDALDVSLIERGESFYQDRMNDIVKEFEDRGFVQVDDGRKIVFVPGCSIPLTIVKSDGGYTYDTSDLAAIKQRLFEEKADMIIYVVDNGQSVHFQTIFAAAQMIGWYDPKVTRVFHAGFGVVLGEDKKKFKTRSGETVRLMDLLGEGLKRSMDKLKEKERDKVLTAEELNAAQTSVAYGCIKYADLSHNRLNDYIFSFDKMLDDRGNTAAYLLYAFTRIRSIARLANIDEEMLQKAARETKILLDHEKEWKLGRCILRFPEILQKILDDLFLHTLCDYIYELATAFTEFYDSCYCVEKDRQTGKILKVNMWRMLLCEAVAAVMAKGFDILGIKPVQRM
B2: VARS (protein, UniProt P26640 1-1264)
chain: MSTLYVSPHPDAFPSLRALIAARYGEAGEGPGWGGAHPRICLQPPPTSRTPFPPPRLPALEQGPGGLWVWGATAVAQLLWPAGLGGPGGSRAAVLVQQWVSYADTELIPAACGATLPALGLRSSAQDPQAVLGALGRALSPLEEWLRLHTYLAGEAPTLADLAAVTALLLPFRYVLDPPARRIWNNVTRWFVTCVRQPEFRAVLGEVVLYSGARPLSHQPGPEAPALPKTAAQLKKEAKKREKLEKFQQKQKIQQQQPPPGEKKPKPEKREKRDPGVITYDLPTPPGEKKDVSGPMPDSYSPRYVEAAWYPWWEQQGFFKPEYGRPNVSAANPRGVFMMCIPPPNVTGSLHLGHALTNAIQDSLTRWHRMRGETTLWNPGCDHAGIATQVVVEKKLWREQGLSRHQLGREAFLQEVWKWKEEKGDRIYHQLKKLGSSLDWDRACFTMDPKLSAAVTEAFVRLHEEGIIYRSTRLVNWSCTLNSAISDIEVDKKELTGRTLLSVPGYKEKVEFGVLVSFAYKVQGSDSDEEVVVATTRIETMLGDVAVAVHPKDTRYQHLKGKNVIHPFLSRSLPIVFDEFVDMDFGTGAVKITPAHDQNDYEVGQRHGLEAISIMDSRGALINVPPPFLGLPRFEARKAVLVALKERGLFRGIEDNPMVVPLCNRSKDVVEPLLRPQWYVRCGEMAQAASAAVTRGDLRILPEAHQRTWHAWMDNIREWCISRQLWWGHRIPAYFVTVSDPAVPPGEDPDGRYWVSGRNEAEAREKAAKEFGVSPDKISLQQDEDVLDTWFSSGLFPLSILGWPNQSEDLSVFYPGTLLETGHDILFFWVARMVMLGLKLTGRLPFREVYLHAIVRDAHGRKMSKSLGNVIDPLDVIYGISLQGLHNQLLNSNLDPSEVEKAKEGQKADFPAGIPECGTDALRFGLCAYMSQGRDINLDVNRILGYRHFCNKLWNATKFALRGLGKGFVPSPTSQPGGHESLVDRWIRSRLTEAVRLSNQGFQAYDFPAVTTAQYSFWLYELCDVYLECLKPVLNGVDQVAAECARQTLYTCLDVGLRLLSPFMPFVTEELFQRLPRRMPQAPPSLCVTPYPEPSECSWKDPEAEAALELALSITRAVRSLRADYNLTRIRPDCFLEVADEATGALASAVSGYVQALASAGVVAVLALGAPAPQGCAVALASDRCSIHLQLQGLVDPARELGKLQAKRVEAQRQAQRLRERRAASGYPVKVPLEVQEADEAKLQQTEAELRKVDEAIALFQKML
B3: MARS (protein, UniProt P56192 1-900)
chain: MRLFVSDGVPGCLPVLAAAGRARGRAEVLISTVGPEDCVVPFLTRPKVPVLQLDSGNYLFSTSAICRYFFLLSGWEQDDLTNQWLEWEATELQPALSAALYYLVVQGKKGEDVLGSVRRALTHIDHSLSRQNCPFLAGETESLADIVLWGALYPLLQDPAYLPEELSALHSWFQTLSTQEPCQRAAETVLKQQGVLALRPYLQKQPQPSPAEGRAVTNEPEEEELATLSEEEIAMAVTAWEKGLESLPPLRPQQNPVLPVAGERNVLITSALPYVNNVPHLGNIIGCVLSADVFARYSRLRQWNTLYLCGTDEYGTATETKALEEGLTPQEICDKYHIIHADIYRWFNISFDIFGRTTTPQQTKITQDIFQQLLKRGFVLQDTVEQLRCEHCARFLADRFVEGVCPFCGYEEARGDQCDKCGKLINAVELKKPQCKVCRSCPVVQSSQHLFLDLPKLEKRLEEWLGRTLPGSDWTPNAQFITRSWLRDGLKPRCITRDLKWGTPVPLEGFEDKVFYVWFDATIGYLSITANYTDQWERWWKNPEQVDLYQFMAKDNVPFHSLVFPCSALGAEDNYTLVSHLIATEYLNYEDGKFSKSRGVGVFGDMAQDTGIPADIWRFYLLYIRPEGQDSAFSWTDLLLKNNSELLNNLGNFINRAGMFVSKFFGGYVPEMVLTPDDQRLLAHVTLELQHYHQLLEKVRIRDALRSILTISRHGNQYIQVNEPWKRIKGSEADRQRAGTVTGLAVNIAALLSVMLQPYMPTVSATIQAQLQLPPPACSILLTNFLCTLPAGHQIGTVSPLFQKLENDQIESLRQRFGGGQAKTSPKPAVVETVTTAKPQQIQALMDEVTKQGNIVRELKAQKADKNEVAAEVAKLLDLKKQLAVAEGKPPEAPKGKKKK
B4: OGDHL (protein, UniProt Q9ULD0 74-1010)
chain: FREASEEAFSGSAQPRPPSVVHESRSAVSSRTKTSKLVEDHLAVQSLIRAYQIRGHHVAQLDPLGILDADLDSFVPSDLITTIDKLAFYDLQEADLDKEFQLPTTTFIGGSENTLSLREIIRRLENTYCQHIGLEFMFINDVEQCQWIRQKFETPGVMQFSSEEKRTLLARLVRSMRFEDFLARKWSSEKRFGLEGCEVMIPALKTIIDKSSEMGIENVILGMPHRGRLNVLANVIRKDLEQIFCQFDPKLEAADEGSGDVKYHLGMYHERINRVTNRNITLSLVANPSHLEAVDPVVQGKTKAEQFYRGDAQGKKVMSILVHGDAAFAGQGVVYETFHLSDLPSYTTNGTVHVVVNNQIGFTTDPRMARSSPYPTDVARVVNAPIFHVNADDPEAVIYVCSVAAEWRNTFNKDVVVDLVCYRRRGHNEMDEPMFTQPLMYKQIHRQVPVLKKYADKLIAEGTVTLQEFEEEIAKYDRICEEAYGRSKDKKILHIKHWLDSPWPGFFNVDGEPKSMTCPATGIPEDMLTHIGSVASSVPLEDFKIHTGLSRILRGRADMTKNRTVDWALAEYMAFGSLLKEGIHVRLSGQDVERGTFSHRHHVLHDQEVDRRTCVPMNHLWPDQAPYTVCNSSLSEYGVLGFELGYAMASPNALVLWEAQFGDFHNTAQCIIDQFISTGQAKWVRHNGIVLLLPHGMEGMGPEHSSARPERFLQMSNDDSDAYPAFTKDFEVSQLYDCNWIVVNCSTPANYFHVLRRQILLPFRKPLIIFTPKSLLRHPEAKSSFDQMVSGTSFQRVIPEDGAAARAPEQVQRLIFCTGKVYYDLVKERSSQDLEEKVAITRLEQISPFPFDLIKQEAEKYPGAELAWCQEEHKNMGYYDYISPRFMTILRRARPIWYVGRDPAAAPATGNRNTHLVSLKKFLDTAFNLQAFEGKTF
B5: DLAT (protein, UniProt P10515 87-647)
chain: SLPPHQKVPLPSLSPTMQAGTIARWEKKEGDKINEGDLIAEVETDKATVGFESLEECYMAKILVAEGTRDVPIGAIICITVGKPEDIEAFKNYTLDSSAAPTPQAAPAPTPAATASPPTPSAQAPGSSYPPHMQVLLPALSPTMTMGTVQRWEKKVGEKLSEGDLLAEIETDKATIGFEVQEEGYLAKILVPEGTRDVPLGTPLCIIVEKEADISAFADYRPTEVTDLKPQVPPPTPPPVAAVPPTPQPLAPTPSAPCPATPAGPKGRVFVSPLAKKLAVEKGIDLTQVKGTGPDGRITKKDIDSFVPSKVAPAPAAVVPPTGPGMAPVPTGVFTDIPISNIRRVIAQRLMQSKQTIPHYYLSIDVNMGEVLLVRKELNKILEGRSKISVNDFIIKASALACLKVPEANSSWMDTVIRQNHVVDVSVAVSTPAGLITPIVFNAHIKGVETIANDVVSLATKAREGKLQPHEFQGGTFTISNLGMFGIKNFSAIINPPQACILAIGASEDKLVPADNEKGFDVASMMSVTLSCDHRVVDGAVGAQWLAEFRKYLEKPITMLL

What follows are binders tested against T1, C-terminal FLAG-tagged mouse WDR72 (WD repeat-containing protein 72) (mouse) (assay: affinity purification with mass spectrometry; C-terminal FLAG-tagged mouse WDR72 overexpressed in HEK293; NP40 lysate; anti-FLAG antibody on protein A Dynabeads, 30 min at room temperature, washed twice; six CBB-stained bands cut from the SDS-PAGE gel, trypsin, LC-MS/MS).

binding, binds:
B1, B2, B3, B4, B5
